# Measurements as given in publication PMC12264150, “A chromatin-remodeling-independent role for ATRX in protecting centromeric cohesion” (The EMBO Journal, 2025).
# Amino acid sequences for entries named in this document (tags omitted).
# UniProt Q96FF9: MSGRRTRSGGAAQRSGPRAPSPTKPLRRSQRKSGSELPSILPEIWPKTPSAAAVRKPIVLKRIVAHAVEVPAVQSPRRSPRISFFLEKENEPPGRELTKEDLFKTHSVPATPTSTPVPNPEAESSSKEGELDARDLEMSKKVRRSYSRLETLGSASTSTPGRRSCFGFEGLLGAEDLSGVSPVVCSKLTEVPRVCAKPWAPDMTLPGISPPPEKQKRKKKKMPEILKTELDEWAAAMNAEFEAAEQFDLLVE
# UniProt Q9UQE7: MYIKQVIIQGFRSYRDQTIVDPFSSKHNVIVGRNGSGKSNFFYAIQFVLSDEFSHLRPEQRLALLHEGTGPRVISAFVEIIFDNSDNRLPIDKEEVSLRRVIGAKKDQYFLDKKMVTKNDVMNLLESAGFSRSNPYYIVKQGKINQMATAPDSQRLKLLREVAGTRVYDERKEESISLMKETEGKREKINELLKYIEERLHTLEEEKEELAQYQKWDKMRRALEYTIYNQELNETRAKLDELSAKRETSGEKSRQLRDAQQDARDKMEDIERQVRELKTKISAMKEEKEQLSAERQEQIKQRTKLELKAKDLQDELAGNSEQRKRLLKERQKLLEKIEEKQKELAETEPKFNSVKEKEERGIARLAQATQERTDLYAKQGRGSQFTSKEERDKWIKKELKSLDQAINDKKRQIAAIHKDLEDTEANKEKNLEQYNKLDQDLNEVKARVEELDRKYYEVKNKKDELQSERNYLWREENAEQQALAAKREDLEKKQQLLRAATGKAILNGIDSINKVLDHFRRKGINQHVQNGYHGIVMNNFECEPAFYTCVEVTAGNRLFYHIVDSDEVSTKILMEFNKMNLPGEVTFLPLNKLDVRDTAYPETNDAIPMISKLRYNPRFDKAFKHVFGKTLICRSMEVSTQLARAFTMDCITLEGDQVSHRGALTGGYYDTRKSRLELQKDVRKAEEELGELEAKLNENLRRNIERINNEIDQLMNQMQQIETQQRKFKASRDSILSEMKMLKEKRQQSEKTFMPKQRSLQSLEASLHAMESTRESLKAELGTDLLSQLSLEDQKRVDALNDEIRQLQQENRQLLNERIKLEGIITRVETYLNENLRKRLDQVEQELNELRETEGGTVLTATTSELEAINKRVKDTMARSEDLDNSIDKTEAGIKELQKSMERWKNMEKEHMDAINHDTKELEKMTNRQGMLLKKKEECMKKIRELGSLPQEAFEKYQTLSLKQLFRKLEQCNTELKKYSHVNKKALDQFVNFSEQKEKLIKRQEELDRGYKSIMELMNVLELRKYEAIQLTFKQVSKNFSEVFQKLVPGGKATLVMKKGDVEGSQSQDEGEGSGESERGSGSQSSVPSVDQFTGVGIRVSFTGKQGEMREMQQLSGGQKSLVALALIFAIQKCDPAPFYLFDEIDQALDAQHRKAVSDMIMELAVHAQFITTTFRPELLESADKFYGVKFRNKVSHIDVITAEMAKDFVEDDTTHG
# UniProt O60216: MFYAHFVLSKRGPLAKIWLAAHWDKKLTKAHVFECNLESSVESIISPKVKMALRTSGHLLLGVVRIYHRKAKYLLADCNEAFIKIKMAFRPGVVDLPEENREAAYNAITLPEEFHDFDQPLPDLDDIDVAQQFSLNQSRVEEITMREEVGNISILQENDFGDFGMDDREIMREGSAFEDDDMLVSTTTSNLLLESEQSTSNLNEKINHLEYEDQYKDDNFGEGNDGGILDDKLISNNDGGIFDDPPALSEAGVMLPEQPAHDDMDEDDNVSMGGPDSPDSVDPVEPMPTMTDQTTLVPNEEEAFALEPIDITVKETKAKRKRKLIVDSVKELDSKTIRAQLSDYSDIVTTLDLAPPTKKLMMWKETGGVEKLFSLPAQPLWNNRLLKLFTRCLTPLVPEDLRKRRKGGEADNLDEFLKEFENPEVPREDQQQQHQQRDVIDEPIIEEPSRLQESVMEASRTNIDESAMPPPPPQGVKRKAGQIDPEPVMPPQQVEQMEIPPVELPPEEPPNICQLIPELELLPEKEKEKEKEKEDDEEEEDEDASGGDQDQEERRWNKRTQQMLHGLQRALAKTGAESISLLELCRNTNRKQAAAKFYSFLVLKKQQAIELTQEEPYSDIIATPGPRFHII
# UniProt Q8N3U4: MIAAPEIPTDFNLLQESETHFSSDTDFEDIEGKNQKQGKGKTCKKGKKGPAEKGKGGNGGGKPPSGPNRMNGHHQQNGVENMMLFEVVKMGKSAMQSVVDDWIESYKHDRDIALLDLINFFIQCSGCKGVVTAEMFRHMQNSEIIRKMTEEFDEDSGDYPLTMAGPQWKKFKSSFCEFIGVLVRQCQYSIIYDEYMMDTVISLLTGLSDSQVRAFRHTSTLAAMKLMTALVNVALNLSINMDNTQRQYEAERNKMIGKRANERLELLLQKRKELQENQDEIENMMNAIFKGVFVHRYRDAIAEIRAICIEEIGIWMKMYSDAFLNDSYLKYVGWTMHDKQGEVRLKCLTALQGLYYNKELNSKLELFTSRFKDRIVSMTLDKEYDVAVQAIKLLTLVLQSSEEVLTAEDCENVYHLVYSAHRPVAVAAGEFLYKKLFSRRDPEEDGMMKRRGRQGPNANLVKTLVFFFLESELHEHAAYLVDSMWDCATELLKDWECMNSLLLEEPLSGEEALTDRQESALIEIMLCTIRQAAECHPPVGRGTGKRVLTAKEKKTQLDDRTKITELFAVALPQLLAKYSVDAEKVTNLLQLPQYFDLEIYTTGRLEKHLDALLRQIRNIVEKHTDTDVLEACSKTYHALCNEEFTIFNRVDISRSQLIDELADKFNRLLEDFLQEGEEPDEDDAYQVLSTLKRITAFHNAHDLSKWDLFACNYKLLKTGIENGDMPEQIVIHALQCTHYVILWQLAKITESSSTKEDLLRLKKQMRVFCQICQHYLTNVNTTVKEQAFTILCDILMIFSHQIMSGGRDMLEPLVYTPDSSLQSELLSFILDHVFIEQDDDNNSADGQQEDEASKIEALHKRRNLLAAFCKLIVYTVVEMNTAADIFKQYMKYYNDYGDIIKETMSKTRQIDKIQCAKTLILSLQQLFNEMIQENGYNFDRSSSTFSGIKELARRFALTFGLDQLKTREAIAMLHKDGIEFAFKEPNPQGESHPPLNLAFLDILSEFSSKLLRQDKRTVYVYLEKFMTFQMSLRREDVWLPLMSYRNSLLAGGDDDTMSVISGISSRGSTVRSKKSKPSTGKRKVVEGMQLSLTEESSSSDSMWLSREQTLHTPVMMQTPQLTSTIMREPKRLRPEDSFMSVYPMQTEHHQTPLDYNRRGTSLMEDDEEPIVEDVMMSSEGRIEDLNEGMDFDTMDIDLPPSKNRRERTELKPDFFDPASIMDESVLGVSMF
# These are yes or no findings as the source states them, for the method shown. Binding seen in cells or lysates may run through a third protein. Here binding means that the protein was enriched with, or labelled near, the bait; the list need not be complete. Tags and fused reporters may be left off the sequences shown.
# T1: Myc-Pds5B (UniProt Q9NTI5)
# T1 sequence: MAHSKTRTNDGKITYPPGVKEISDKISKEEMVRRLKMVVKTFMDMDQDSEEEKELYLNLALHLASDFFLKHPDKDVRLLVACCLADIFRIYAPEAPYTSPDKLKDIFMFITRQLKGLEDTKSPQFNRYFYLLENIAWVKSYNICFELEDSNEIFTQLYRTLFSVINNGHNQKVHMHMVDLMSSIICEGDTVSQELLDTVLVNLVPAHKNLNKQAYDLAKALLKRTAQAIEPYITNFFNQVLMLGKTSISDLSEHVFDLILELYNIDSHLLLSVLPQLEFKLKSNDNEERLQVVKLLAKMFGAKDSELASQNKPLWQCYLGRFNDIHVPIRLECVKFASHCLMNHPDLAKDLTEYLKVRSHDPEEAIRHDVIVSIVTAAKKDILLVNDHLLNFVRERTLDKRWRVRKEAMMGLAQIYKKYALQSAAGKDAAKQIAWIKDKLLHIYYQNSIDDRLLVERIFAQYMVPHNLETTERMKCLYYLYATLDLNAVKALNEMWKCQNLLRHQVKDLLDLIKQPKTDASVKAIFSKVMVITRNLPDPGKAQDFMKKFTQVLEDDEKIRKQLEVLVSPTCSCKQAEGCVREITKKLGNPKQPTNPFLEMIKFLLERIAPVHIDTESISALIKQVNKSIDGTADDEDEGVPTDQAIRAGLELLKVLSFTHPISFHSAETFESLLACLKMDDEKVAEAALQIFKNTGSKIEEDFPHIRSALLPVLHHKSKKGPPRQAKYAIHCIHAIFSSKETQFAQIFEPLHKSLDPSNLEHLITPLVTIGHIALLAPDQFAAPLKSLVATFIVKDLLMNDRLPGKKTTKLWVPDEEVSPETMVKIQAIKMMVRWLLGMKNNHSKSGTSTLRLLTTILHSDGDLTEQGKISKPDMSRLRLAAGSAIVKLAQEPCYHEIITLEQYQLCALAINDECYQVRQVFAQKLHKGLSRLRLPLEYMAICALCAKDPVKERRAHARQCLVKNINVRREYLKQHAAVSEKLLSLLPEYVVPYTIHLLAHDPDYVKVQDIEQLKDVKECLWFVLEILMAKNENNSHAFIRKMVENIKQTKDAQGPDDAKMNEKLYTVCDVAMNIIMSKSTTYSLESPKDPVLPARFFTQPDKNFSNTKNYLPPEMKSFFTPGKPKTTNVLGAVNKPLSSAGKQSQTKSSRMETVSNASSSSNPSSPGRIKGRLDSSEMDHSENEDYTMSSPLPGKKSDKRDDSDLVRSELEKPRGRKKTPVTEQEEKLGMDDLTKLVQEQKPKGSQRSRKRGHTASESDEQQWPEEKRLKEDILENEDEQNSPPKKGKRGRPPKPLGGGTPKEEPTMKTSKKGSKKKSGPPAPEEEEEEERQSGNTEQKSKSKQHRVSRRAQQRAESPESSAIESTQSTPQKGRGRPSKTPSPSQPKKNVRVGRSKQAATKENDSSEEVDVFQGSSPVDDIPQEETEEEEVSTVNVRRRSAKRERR
# Target: T1, Myc-Pds5B
# Experiment: affinity purification with mass spectrometry; Myc-Pds5B immunoprecipitated from HEK-293T cells with anti-Myc beads, control IgG beside it; bands cut from SDS-PAGE, trypsin, Orbitrap Exploris 480
row,Molecule,binding
1,endogenous Sororin (HEK-293T) (from UniProt Q96FF9 1-252),binds
2,endogenous SMC3 (HEK-293T) (from UniProt Q9UQE7 1-1217),binds
3,endogenous RAD21 (HEK-293T) (from UniProt O60216 1-631),binds
4,endogenous SA2 (HEK-293T) (from UniProt Q8N3U4 1-1231),binds
5,"endogenous SMC1A (HEK-293T) (protein, UniProt Q14683 1-1233) MGFLKLIEIENFKSYKGRQIIGPFQRFTAIIGPNGSGKSNLMDAISFVLGEKTSNLRVKTLRDLIHGAPVGKPAANRAFVSMVYSEEGAEDRTFARVIVGGSSEYKINNKVVQLHEYSEELEKLGILIKARNFLVFQGAVESIAMKNPKERTALFEEISRSGELAQEYDKRKKEMVKAEEDTQFNYHRKKNIAAERKEAKQEKEEADRYQRLKDEVVRAQVQLQLFKLYHNEVEIEKLNKELASKNKEIEKDKKRMDKVEDELKEKKKELGKMMREQQQIEKEIKEKDSELNQKRPQYIKAKENTSHKIKKLEAAKKSLQNAQKHYKKRKGDMDELEKEMLSVEKARQEFEERMEEESQSQGRDLTLEENQVKKYHRLKEEASKRAATLAQELEKFNRDQKADQDRLDLEERKKVETEAKIKQKLREIEENQKRIEKLEEYITTSKQSLEEQKKLEGELTEEVEMAKRRIDEINKELNQVMEQLGDARIDRQESSRQQRKAEIMESIKRLYPGSVYGRLIDLCQPTQKKYQIAVTKVLGKNMDAIIVDSEKTGRDCIQYIKEQRGEPETFLPLDYLEVKPTDEKLRELKGAKLVIDVIRYEPPHIKKALQYACGNALVCDNVEDARRIAFGGHQRHKTVALDGTLFQKSGVISGGASDLKAKARRWDEKAVDKLKEKKERLTEELKEQMKAKRKEAELRQVQSQAHGLQMRLKYSQSDLEQTKTRHLALNLQEKSKLESELANFGPRINDIKRIIQSREREMKDLKEKMNQVEDEVFEEFCREIGVRNIREFEEEKVKRQNEIAKKRLEFENQKTRLGIQLDFEKNQLKEDQDKVHMWEQTVKKDENEIEKLKKEEQRHMKIIDETMAQLQDLKNQHLAKKSEVNDKNHEMEEIRKKLGGANKEMTHLQKEVTAIETKLEQKRSDRHNLLQACKMQDIKLPLSKGTMDDISQEEGSSQGEDSVSGSQRISSIYAREALIEIDYGDLCEDLKDAQAEEEIKQEMNTLQQKLNEQQSVLQRIAAPNMKAMEKLESVRDKFQETSDEFEAARKRAKKAKQAFEQIKKERFDRFNACFESVATNIDEIYKALSRNSSAQAFLGPENPEEPYLDGINYNCVAPGKRFRPMDNLSGGEKTVAALALLFAIHSYKPAPFFVLDEIDAALDNTNIGKVANYIKEQSTCNFQAIVISLKEEFYTKAESLIGVYPEQGDCVISKVLTFDLTKYPDANPNPNEQ",binds
6,"endogenous SA1 (HEK-293T) (protein, UniProt Q8WVM7 1-1258) MITSELPVLQDSTNETTAHSDAGSELEETEVKGKRKRGRPGRPPSTNKKPRKSPGEKSRIEAGIRGAGRGRANGHPQQNGEGEPVTLFEVVKLGKSAMQSVVDDWIESYKQDRDIALLDLINFFIQCSGCRGTVRIEMFRNMQNAEIIRKMTEEFDEDSGDYPLTMPGPQWKKFRSNFCEFIGVLIRQCQYSIIYDEYMMDTVISLLTGLSDSQVRAFRHTSTLAAMKLMTALVNVALNLSIHQDNTQRQYEAERNKMIGKRANERLELLLQKRKELQENQDEIENMMNSIFKGIFVHRYRDAIAEIRAICIEEIGVWMKMYSDAFLNDSYLKYVGWTLHDRQGEVRLKCLKALQSLYTNRELFPKLELFTNRFKDRIVSMTLDKEYDVAVEAIRLVTLILHGSEEALSNEDCENVYHLVYSAHRPVAVAAGEFLHKKLFSRHDPQAEEALAKRRGRNSPNGNLIRMLVLFFLESELHEHAAYLVDSLWESSQELLKDWECMTELLLEEPVQGEEAMSDRQESALIELMVCTIRQAAEAHPPVGRGTGKRVLTAKERKTQIDDRNKLTEHFIITLPMLLSKYSADAEKVANLLQIPQYFDLEIYSTGRMEKHLDALLKQIKFVVEKHVESDVLEACSKTYSILCSEEYTIQNRVDIARSQLIDEFVDRFNHSVEDLLQEGEEADDDDIYNVLSTLKRLTSFHNAHDLTKWDLFGNCYRLLKTGIEHGAMPEQIVVQALQCSHYSILWQLVKITDGSPSKEDLLVLRKTVKSFLAVCQQCLSNVNTPVKEQAFMLLCDLLMIFSHQLMTGGREGLQPLVFNPDTGLQSELLSFVMDHVFIDQDEENQSMEGDEEDEANKIEALHKRRNLLAAFSKLIIYDIVDMHAAADIFKHYMKYYNDYGDIIKETLSKTRQIDKIQCAKTLILSLQQLFNELVQEQGPNLDRTSAHVSGIKELARRFALTFGLDQIKTREAVATLHKDGIEFAFKYQNQKGQEYPPPNLAFLEVLSEFSSKLLRQDKKTVHSYLEKFLTEQMMERREDVWLPLISYRNSLVTGGEDDRMSVNSGSSSSKTSSVRNKKGRPPLHKKRVEDESLDNTWLNRTDTMIQTPGPLPAPQLTSTVLRENSRPMGDQIQEPESEHGSEPDFLHNPQMQISWLGQPKLEDLNRKDRTGMNYMKVRTGVRHAVRGLMEEDAEPIFEDVMMSSRSQLEDMNEEFEDTMVIDLPPSRNRRERAELRPDFFDSAAIIEDDSGFGMPMF",binds
7,"endogenous Wapl (HEK-293T) (protein, UniProt Q7Z5K2 1-1190) MTSRFGKTYSRKGGNGSSKFDEVFSNKRTTLSTKWGETTFMAKLGQKRPNFKPDIQEIPKKPKVEEESTGDPFGFDSDDESLPVSSKNLAQVKCSSYSESSEAAQLEEVTSVLEANSKISHVVVEDTVVSDKCFPLEDTLLGKEKSTNRIVEDDASISSCNKLITSDKVENFHEEHEKNSHHIHKNADDSTKKPNAETTVASEIKETNDTWNSQFGKRPESPSEISPIKGSVRTGLFEWDNDFEDIRSEDCILSLDSDPLLEMKDDDFKNRLENLNEAIEEDIVQSVLRPTNCRTYCRANKTKSSQGASNFDKLMDGTSQALAKANSESSKDGLNQAKKGGVSCGTSFRGTVGRTRDYTVLHPSCLSVCNVTIQDTMERSMDEFTASTPADLGEAGRLRKKADIATSKTTTRFRPSNTKSKKDVKLEFFGFEDHETGGDEGGSGSSNYKIKYFGFDDLSESEDDEDDDCQVERKTSKKRTKTAPSPSLQPPPESNDNSQDSQSGTNNAENLDFTEDLPGVPESVKKPINKQGDKSKENTRKIFSGPKRSPTKAVYNARHWNHPDSEELPGPPVVKPQSVTVRLSSKEPNQKDDGVFKAPAPPSKVIKTVTIPTQPYQDIVTALKCRREDKELYTVVQHVKHFNDVVEFGENQEFTDDIEYLLSGLKSTQPLNTRCLSVISLATKCAMPSFRMHLRAHGMVAMVFKTLDDSQHHQNLSLCTAALMYILSRDRLNMDLDRASLDLMIRLLELEQDASSAKLLNEKDMNKIKEKIRRLCETVHNKHLDLENITTGHLAMETLLSLTSKRAGDWFKEELRLLGGLDHIVDKVKECVDHLSRDEDEEKLVASLWGAERCLRVLESVTVHNPENQSYLIAYKDSQLIVSSAKALQHCEELIQQYNRAEDSICLADSKPLPHQNVTNHVGKAVEDCMRAIIGVLLNLTNDNEWGSTKTGEQDGLIGTALNCVLQVPKYLPQEQRFDIRVLGLGLLINLVEYSARNRHCLVNMETSCSFDSSICSGEGDDSLRIGGQVHAVQALVQLFLERERAAQLAESKTDELIKDAPTTQHDKSGEWQETSGEIQWVSTEKTDGTEEKHKKEEEDEELDLNKALQHAGKHMEDCIVASYTALLLGCLCQESPINVTTVREYLPEGDFSIMTEMLKKFLSFMNLTCAVGTTGQKSISRVIEYLEHC",binds
